{"sequences": {"note": "Sequences of proteins named here, by UniProt entry; tags and fusion partners are left off. Residues count along the entry.", "UniProt A4HSV2, 1-306": "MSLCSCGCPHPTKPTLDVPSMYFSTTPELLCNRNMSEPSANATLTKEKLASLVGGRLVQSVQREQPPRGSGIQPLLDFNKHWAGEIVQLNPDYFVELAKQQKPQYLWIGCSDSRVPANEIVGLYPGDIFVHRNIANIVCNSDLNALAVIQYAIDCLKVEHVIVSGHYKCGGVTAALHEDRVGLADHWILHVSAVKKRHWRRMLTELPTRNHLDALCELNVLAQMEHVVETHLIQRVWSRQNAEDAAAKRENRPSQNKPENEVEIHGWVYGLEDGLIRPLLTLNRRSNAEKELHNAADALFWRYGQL"}, "source": "paper PMC6598531", "about": "“Appraisal of anti-protozoan activity of nitroaromatic benzenesulfonamides inhibiting carbonic anhydrases from Trypanosoma cruzi and Leishmania donovani” (Journal of Enzyme Inhibition and Medicinal Chemistry, 2019)", "molecular_target": "LdcCA (Leishmania infantum, UniProt A4HSV2)", "assay": "biochemical", "conditions": "stopped flow CO2 hydrase assay, mean from three assays; read-out: KI LdCA"}
{"smiles": "CC(=O)Nc1nnc(S(N)(=O)=O)s1", "note": "[AAZ, acetazolamide, reference compound]", "values": [{"measurement": "Ki", "value": 90, "unit": "nM"}]}
